The other results are listed elsewhere or left out.
Tests used:
Experiment in all cases: log2 fold change, soluble protein after heating vs DMSO (PISA); higher = thermal stabilisation; K562 lysate, 10 uM; active = over 0.2 and 3.5 SD of the protein, either way, in both replicates (recomputed)
[1] = compound: C1=CC2=NC=CN=C2C=C1/C=C/3\C(=O)NC(=O)S3
In short: (§1)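 Thermal stability, expressed as log-two fold change relative to solvent controls, is given from duplicates. Crude K562 extract in PBS pH 7.4 with 1 mM MgCl2, at 1 mg/mL protein, was treated with 10 μM compound for 30 min and heated in aliquots for 3 min across 48°C-58°C. After pooling, adjustment to 0.5% NP-40 at 4°C and centrifugation at 21,000xg for 90 min, supernatant protein was measured by TMTpro 16plex LC-MS/MS with channel sums equalised.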

Protein sequences, listed by entry. Tags and fused reporters are not part of them. Lines headed by an entry give the natural chain unless they say otherwise; changes in a name come on top.
UniProt Q08999: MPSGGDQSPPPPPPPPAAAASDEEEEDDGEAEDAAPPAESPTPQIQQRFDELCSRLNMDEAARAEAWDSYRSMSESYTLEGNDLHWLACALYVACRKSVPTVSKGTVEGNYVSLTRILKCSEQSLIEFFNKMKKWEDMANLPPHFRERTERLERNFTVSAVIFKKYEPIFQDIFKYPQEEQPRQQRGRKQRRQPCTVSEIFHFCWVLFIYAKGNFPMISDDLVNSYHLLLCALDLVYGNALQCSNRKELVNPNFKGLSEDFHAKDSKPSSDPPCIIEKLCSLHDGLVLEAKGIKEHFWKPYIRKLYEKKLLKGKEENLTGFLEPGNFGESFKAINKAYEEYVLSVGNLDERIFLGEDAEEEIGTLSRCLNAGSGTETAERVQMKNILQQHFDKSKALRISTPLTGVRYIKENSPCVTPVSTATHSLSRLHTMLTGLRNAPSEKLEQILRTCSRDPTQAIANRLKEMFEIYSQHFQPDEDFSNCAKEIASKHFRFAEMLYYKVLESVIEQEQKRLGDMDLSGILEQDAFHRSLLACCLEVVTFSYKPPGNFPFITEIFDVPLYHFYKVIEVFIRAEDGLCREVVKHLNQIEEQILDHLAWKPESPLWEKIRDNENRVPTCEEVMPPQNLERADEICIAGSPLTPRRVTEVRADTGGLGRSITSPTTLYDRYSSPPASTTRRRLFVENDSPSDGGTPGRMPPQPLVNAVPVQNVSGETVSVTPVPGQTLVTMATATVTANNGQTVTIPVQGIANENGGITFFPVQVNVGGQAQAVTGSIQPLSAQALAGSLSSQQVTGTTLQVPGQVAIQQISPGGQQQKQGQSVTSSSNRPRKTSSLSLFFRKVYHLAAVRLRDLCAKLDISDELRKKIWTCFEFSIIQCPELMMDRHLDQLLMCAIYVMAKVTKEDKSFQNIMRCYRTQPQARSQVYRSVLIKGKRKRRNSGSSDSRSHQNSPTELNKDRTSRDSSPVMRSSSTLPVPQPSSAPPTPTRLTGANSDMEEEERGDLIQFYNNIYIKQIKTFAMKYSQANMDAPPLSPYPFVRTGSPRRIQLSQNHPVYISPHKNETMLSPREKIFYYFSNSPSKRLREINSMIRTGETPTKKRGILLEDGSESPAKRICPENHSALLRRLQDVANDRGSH
UniProt Q8IZ40: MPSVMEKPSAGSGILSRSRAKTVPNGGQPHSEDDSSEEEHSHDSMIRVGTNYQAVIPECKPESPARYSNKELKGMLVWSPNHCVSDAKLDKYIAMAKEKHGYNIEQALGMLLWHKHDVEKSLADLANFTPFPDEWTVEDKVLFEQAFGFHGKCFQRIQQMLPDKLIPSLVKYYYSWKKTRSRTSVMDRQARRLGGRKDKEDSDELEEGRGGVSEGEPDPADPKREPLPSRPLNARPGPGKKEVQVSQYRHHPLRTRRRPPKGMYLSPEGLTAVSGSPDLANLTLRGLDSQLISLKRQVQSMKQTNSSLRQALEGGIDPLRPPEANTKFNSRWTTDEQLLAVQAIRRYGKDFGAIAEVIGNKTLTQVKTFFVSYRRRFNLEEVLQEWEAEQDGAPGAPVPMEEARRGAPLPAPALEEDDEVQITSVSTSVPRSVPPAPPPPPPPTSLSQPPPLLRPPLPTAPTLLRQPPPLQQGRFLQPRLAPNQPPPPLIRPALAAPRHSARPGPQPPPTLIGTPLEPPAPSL
UniProt P48380: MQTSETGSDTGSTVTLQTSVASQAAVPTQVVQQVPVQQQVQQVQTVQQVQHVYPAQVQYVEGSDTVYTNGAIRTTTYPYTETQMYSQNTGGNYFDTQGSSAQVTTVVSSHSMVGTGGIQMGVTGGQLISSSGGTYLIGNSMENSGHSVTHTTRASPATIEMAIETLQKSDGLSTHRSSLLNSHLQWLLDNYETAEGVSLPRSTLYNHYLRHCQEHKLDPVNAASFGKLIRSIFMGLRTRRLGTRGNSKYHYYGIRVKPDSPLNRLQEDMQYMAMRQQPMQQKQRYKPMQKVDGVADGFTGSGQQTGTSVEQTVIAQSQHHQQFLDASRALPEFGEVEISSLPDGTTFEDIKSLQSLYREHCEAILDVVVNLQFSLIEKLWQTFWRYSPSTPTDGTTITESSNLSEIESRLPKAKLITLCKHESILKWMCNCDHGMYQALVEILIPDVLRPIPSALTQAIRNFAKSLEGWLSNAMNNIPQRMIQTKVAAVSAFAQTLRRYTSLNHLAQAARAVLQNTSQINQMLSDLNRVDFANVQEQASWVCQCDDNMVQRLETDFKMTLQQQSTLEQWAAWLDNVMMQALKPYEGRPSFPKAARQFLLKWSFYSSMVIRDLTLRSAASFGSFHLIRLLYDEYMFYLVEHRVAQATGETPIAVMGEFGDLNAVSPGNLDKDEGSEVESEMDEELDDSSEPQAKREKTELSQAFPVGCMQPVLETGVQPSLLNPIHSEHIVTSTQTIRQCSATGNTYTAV
UniProt Q02161: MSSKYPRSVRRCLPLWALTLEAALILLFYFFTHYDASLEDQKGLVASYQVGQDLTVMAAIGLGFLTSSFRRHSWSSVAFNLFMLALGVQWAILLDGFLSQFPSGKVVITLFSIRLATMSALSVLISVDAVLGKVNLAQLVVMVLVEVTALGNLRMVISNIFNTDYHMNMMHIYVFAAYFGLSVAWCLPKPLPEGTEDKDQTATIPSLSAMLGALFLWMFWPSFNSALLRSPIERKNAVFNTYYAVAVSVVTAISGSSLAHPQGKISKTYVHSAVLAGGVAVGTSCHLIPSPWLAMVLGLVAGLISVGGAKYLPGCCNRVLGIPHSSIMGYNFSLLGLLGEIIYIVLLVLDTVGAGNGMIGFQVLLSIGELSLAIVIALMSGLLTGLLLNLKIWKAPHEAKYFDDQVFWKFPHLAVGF
UniProt Q9P260: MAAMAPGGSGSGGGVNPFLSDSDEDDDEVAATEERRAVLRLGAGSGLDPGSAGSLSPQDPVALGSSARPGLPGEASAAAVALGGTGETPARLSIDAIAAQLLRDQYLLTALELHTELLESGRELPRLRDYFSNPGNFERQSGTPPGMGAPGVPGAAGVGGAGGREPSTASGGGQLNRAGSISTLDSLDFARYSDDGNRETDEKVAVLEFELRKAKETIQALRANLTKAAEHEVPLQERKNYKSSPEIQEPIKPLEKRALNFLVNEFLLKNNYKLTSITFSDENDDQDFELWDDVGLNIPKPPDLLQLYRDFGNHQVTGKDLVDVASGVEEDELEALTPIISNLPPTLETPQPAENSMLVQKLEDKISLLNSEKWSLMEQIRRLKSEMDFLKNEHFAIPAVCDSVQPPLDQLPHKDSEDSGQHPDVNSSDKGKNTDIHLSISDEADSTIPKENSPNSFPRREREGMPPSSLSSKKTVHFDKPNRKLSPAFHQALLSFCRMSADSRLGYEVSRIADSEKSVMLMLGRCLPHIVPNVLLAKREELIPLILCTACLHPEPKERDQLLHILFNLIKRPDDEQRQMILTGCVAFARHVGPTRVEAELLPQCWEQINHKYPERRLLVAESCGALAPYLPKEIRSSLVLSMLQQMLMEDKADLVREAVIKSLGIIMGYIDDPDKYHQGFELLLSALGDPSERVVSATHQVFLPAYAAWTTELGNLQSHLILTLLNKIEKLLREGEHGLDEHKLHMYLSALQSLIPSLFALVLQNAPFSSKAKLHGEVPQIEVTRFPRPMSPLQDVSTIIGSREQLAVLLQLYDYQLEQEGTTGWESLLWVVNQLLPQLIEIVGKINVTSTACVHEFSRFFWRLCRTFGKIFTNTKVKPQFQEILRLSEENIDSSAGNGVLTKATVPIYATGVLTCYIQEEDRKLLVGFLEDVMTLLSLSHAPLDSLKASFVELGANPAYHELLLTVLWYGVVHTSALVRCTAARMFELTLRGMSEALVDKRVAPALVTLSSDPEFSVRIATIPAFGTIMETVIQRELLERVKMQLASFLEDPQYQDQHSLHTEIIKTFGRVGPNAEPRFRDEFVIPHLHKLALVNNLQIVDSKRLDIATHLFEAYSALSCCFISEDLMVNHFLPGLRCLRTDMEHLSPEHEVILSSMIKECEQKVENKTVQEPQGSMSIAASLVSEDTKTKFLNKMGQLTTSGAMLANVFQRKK
UniProt Q02833: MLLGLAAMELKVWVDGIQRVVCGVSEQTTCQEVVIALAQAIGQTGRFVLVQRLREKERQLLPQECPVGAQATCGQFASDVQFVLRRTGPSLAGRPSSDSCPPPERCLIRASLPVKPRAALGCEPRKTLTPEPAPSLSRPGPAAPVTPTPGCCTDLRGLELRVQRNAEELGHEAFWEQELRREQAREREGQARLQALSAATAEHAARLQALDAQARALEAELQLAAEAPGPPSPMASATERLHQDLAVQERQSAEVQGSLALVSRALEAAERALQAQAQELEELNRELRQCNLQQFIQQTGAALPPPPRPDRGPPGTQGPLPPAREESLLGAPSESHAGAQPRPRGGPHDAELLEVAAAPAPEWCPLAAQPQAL
UniProt Q9HCJ3: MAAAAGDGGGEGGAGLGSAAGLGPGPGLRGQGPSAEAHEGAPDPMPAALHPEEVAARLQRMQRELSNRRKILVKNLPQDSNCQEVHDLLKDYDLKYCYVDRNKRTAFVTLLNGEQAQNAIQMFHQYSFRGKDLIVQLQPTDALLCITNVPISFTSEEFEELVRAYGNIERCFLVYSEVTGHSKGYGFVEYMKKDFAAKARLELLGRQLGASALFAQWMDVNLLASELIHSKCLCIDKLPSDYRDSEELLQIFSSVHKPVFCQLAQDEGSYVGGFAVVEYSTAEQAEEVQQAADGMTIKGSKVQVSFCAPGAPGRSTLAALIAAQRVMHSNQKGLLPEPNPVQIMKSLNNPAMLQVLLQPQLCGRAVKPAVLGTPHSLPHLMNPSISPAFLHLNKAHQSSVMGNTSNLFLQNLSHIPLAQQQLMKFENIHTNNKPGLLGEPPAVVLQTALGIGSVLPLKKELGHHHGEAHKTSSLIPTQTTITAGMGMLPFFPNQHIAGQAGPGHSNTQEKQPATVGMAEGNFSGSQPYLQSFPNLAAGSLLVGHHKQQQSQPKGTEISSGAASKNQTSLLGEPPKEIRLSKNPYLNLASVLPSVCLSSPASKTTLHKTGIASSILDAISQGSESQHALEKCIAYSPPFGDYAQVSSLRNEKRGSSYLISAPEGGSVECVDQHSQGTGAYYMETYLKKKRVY
UniProt Q8N0V3: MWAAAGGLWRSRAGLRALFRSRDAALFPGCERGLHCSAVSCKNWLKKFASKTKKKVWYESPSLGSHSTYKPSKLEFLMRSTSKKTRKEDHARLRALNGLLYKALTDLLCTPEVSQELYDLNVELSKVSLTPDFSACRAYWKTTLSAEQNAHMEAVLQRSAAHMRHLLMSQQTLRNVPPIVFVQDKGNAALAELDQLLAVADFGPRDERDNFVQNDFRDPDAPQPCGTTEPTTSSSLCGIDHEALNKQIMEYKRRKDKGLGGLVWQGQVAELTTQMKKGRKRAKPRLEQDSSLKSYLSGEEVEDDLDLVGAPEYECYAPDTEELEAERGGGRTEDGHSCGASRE
UniProt A6NEQ0: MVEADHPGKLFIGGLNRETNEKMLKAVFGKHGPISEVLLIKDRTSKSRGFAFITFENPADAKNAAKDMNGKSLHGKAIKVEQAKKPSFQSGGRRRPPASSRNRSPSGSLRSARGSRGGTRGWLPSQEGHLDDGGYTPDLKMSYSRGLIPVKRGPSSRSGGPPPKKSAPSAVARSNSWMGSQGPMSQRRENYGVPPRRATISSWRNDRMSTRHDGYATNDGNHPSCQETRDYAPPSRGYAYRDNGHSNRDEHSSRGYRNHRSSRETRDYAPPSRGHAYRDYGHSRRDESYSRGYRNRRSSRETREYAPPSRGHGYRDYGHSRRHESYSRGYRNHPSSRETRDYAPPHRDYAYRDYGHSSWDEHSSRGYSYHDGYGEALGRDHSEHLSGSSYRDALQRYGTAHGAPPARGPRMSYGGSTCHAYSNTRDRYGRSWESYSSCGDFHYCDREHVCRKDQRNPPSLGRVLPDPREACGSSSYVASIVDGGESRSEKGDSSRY
UniProt Q9Y388: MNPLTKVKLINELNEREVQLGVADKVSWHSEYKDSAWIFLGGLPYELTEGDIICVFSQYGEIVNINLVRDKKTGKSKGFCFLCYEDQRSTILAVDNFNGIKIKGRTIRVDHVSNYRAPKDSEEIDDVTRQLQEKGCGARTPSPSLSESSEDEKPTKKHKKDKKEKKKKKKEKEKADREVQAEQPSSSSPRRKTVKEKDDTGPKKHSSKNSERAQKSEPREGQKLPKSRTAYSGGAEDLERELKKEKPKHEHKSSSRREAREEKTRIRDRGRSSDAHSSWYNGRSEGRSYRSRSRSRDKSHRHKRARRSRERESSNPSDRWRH
UniProt Q8TEB9: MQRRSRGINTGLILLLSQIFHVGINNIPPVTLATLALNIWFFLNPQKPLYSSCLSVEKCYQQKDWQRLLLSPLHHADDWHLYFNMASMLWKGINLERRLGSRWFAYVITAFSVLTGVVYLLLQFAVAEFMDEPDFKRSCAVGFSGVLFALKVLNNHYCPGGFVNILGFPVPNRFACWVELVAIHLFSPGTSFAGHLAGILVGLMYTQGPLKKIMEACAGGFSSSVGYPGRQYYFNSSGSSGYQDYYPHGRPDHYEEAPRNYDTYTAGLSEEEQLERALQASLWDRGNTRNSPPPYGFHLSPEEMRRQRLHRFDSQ

[2] = compound: C1=CC=C(C=C1)C2=NC(=C(N2)C3=CC=NC=C3)C4=CC(=C(C=C4)Cl)O
In short: as §1

[3] = compound: C1CCN(C1)C(=O)NC2=CC=CC(=C2)NC3=NC=C(C(=N3)NCCC4=CN=CN4)Br
In short: as §1

[4] = compound: C1CN(CCC1(CC2=CC=C(C=C2)Cl)N)C3=NC=NC4=C3C=CN4
In short: as §1

IRAK-1-4 Inhibitor I = compound: C1COCCN1CCN2C3=CC=CC=C3N=C2NC(=O)C4=CC(=CC=C4)[N+](=O)[O-] [IRAK-1-4 Inhibitor I]
In short: as §1

erlotinib = compound: C#Cc1cccc(Nc2ncnc3cc(OCCOC)c(OCCOC)cc23)c1 [erlotinib]
In short: as §1

[5] = compound: C1=CC(=CC=C1C2=NC3=C(N2)C=C(C=C3)C(=O)N)OC4=CC=C(C=C4)Cl
In short: as §1

[6] = compound: C/C(=N\NC(=O)C1=CC(=CC=C1)S(=O)(=O)N2CCOCC2)/C3=C(C=CC(=C3)Cl)O
In short: as §1

[7] = compound: C1=CC2=C(C=CC(=C2)/C=C\3/C(=O)NC(=NCC4=CC=CS4)S3)N=C1
In short: as §1

[8] = compound: C1=CC=C2C(=C1)C3=NNC4=CC=CC(=C43)C2=O
In short: as §1

Measured: log2 fold change

RBL2 (UniProt Q08999)
inactive: [1] -0.113 | [2] -0.01 | [3] -0.092 | [4] 0.015 | IRAK-1-4 Inhibitor I 0.001

REX1BD (UniProt Q96EN9)
inactive: erlotinib 0.074 | [5] -0.06 | [2] -0.061 | [3] -0.176 | [4] -0.044 | IRAK-1-4 Inhibitor I 0.103

RCOR2 (UniProt Q8IZ40)
inactive: [2] 0.014 | IRAK-1-4 Inhibitor I 0.049

RBKS (UniProt Q9H477)
inactive: [2] 0.194 | IRAK-1-4 Inhibitor I 0.136

RBP4 (UniProt P02753)
inactive: [1] -0.007

RFX3 (UniProt P48380)
inactive: [1] -0.133 | [3] -0.051 | [4] 0.001

RHD (UniProt Q02161)
inactive: [2] -0.036 | IRAK-1-4 Inhibitor I 0.181

RBM47
inactive: erlotinib 0.351 | [6] 0.143 | [5] 0.283 | [7] 0.142 | [2] -0.248 | [8] -0.155 | IRAK-1-4 Inhibitor I 0.007

RBMXL1 (UniProt Q96E39)
inactive: [6] 0.078 | [7] -0.203 | [8] -0.027 | [3] -0.048 | [4] 0.076

RELCH (UniProt Q9P260)
inactive: [6] 0.173 | [7] 0.054 | [8] -0.156

RASSF7 (UniProt Q02833)
inactive: [1] 0.124

REST (UniProt Q13127)
inactive: erlotinib 0.111 | [6] 0.041 | [5] 0.004 | [7] 0.1 | [2] 0.05 | [8] -0.104 | IRAK-1-4 Inhibitor I 0.013

Pulled one by one from the entries so far, two records:
RBM47
inactive: erlotinib 0.351 | [6] 0.143 | [5] 0.283 | [7] 0.142 | [2] -0.248 | [8] -0.155 | IRAK-1-4 Inhibitor I 0.007

RELCH (UniProt Q9P260)
inactive: [6] 0.173 | [7] 0.054 | [8] -0.156

The list continues.

RESF1 (UniProt Q9HCM1)
inactive: [2] -0.006 | [3] -0.107 | [4] 0.061 | IRAK-1-4 Inhibitor I 0.077

RAVER2 (UniProt Q9HCJ3)
inactive: erlotinib -0.208 | [5] 0.07 | [2] 0.031 | [3] 0.248 | [4] -0.142 | IRAK-1-4 Inhibitor I 0.056

RBM41 (UniProt Q96IZ5)
inactive: [1] -0.018

RBBP4 isoform 4 (UniProt Q09028)
inactive: [2] 0.292 | IRAK-1-4 Inhibitor I -0.066

RHBDD2 isoform 2 (UniProt Q6NTF9)
inactive: erlotinib -0.025 | [5] -0.295 | [2] -0.016 | IRAK-1-4 Inhibitor I -0.043

RBFA (UniProt Q8N0V3)
inactive: erlotinib -0.014 | [5] 0.008 | [2] -0.158 | IRAK-1-4 Inhibitor I -0.018

RBM12B (UniProt Q8IXT5)
inactive: [1] 0.22 | [2] -0.019 | IRAK-1-4 Inhibitor I -0.209

RELA (UniProt Q04206)
inactive: [6] -0.033 | [5] 0 | [7] -0.02 | [1] -0.016 | [2] -0.032 | [8] -0.001 | [3] -0.019 | [4] -0.003 | IRAK-1-4 Inhibitor I 0.031

RBM18 (UniProt Q96H35)
inactive: [6] -0.133 | [7] -0.222 | [2] -0.006 | [8] -0.049 | [3] -0.053 | [4] 0.086 | IRAK-1-4 Inhibitor I 0.03

RBMY1E (UniProt A6NEQ0)
inactive: [6] -0.027 | [7] -0.154 | [1] -0.01 | [8] -0.061 | [3] -0.04 | [4] 0.024

RBMX2 (UniProt Q9Y388)
inactive: erlotinib -0.087 | [6] -0.212 | [5] -0.116 | [7] 0.015 | [8] 0.106

RBBP4 isoform 2 (UniProt Q09028)
inactive: [1] -0.084

RBM48 isoform 2 (UniProt Q5RL73)
inactive: erlotinib 0.011 | [6] 0.079 | [5] 0.133 | [7] 0.187 | [2] 0.065 | [8] -0.009 | [3] 0.033 | [4] -0.078 | IRAK-1-4 Inhibitor I 0.08

RGS14 (UniProt O43566)
inactive: erlotinib 0.063 | [5] -0.109 | [1] -0.189 | [2] -0.09 | [3] -0.168 | [4] 0.138 | IRAK-1-4 Inhibitor I -0.006

RGS3 (UniProt P49796)
inactive: erlotinib 0.035 | [5] 0.027 | [1] -0.006 | [2] -0.186 | IRAK-1-4 Inhibitor I -0.044

RELL1 (UniProt Q8IUW5)
inactive: erlotinib 0.228 | [5] 0.011

RHBDD1 (UniProt Q8TEB9)
inactive: [6] -0.476 | [7] 0.19 | [1] 0.337 | [8] -0.056 | [3] -0.093 | [4] 0.159

RCBTB1 (UniProt Q8NDN9)
inactive: erlotinib -0.102 | [5] 0.099 | [2] 0 | IRAK-1-4 Inhibitor I 0.142

RBFOX2 isoform 8 (UniProt O43251)
inactive: erlotinib -0.052 | [5] -0.184 | [1] 0.106 | [2] -0.168 | [3] -0.028 | [4] -0.182 | IRAK-1-4 Inhibitor I 0.089

RGL2 (UniProt O15211)
inactive: erlotinib -0.306 | [5] -0.034 | [2] 0.036 | IRAK-1-4 Inhibitor I 0.044
